{"source": "patent US9598297B2", "about": "“Method for treating organic-matter-containing water” (KURITA WATER INDUSTRIES LTD., priority 2009, dated 2017)", "test_system": "slime", "experiment": "Effect of inhibiting increase in pressure difference between modules of the RO membrane separation device", "data": [{"compound": "[Na+].[O-]Cl", "note": "[Comparative Example 2, NaClO]", "values": [{"measurement": "Pressure Difference between Modules", "setting": "Flow Days 1", "result": 0.02, "unit": "MPa"}, {"measurement": "Pressure Difference between Modules", "setting": "Flow Days 7", "result": 0.025, "unit": "MPa"}, {"measurement": "Pressure Difference between Modules", "setting": "Flow Days 30", "result": 0.03, "unit": "MPa"}, {"measurement": "Pressure Difference between Modules", "setting": "Flow Days 60", "result": 0.14, "unit": "MPa"}]}]}
